Data on eleven compounds can be found in PubChem BioAssay AID220 (DTP/NCI, 2004).

The list does not hold the whole screen: it gathers tests that were run many times, whatever their T/C, doses with no T/C, and many T/C values between a quarter and a half above the control. Other doses and runs of a compound stand elsewhere. T/C is the treated group as % of the vehicle group. Schedule codes are those of the source, taken here to give the interval after Q, in days (D) or hours (H), and the number of doses after X. Some T/C values are negative: the treated tumours shrank. Some doses were run more than once; the results are listed from low to high. Some T/C values are followed by the survivors on the day toxicity was checked, most often the fifth; without a count, all were alive then. Some doses have a count of surviving animals in place of a T/C: the source holds a T/C of zero for them, seemingly a mark for toxic or unscored doses. Survivors were counted at the toxicity check, usually on the fifth day, unless a day is given; later deaths do not show.

The experiment deals with CD8F1 mice, subcutaneous mammary adenocarcinoma, T/C%. The experiment in a line: NCI In Vivo Anticancer Drug Screen. Data for tumor model Mammary Adenocarcinoma CD8F1 (subcutaneous) in CD8F1. The note with it: higher T/C = larger tumour. The gist of the method: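 Tumor-bearing mice, transplantable model; readout survival or tumor size; value = treated (T) / vehicle control (C).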

[1] abbreviates: T/C endpoint: median tumor weight change, dose: 250.0 mg/kg/injection, schedule: Q01DX001 (ip), vehicle: distilled water + Tween-80 + alcohol.
[2] abbreviates: T/C endpoint: median tumor weight change, dose: 500.0 mg/kg/injection, schedule: Q01DX001 (ip), vehicle: distilled water + Tween-80 + alcohol.
Where [3] appears, read: T/C endpoint: median tumor weight change, dose: 1000.0 mg/kg/injection, schedule: Q01DX001 (ip), vehicle: saline with Tween-80.

Take `Cc1cc(NCCCCCCCCNc2cc(C)nc3cc(N(C)C)ccc23)c2ccc(N(C)C)cc2n1`: the survivor count reads like this: (T/C endpoint: median tumor weight change, dose: 62.0 mg/kg/injection, schedule: Q01DX001 (ip), vehicle: distilled water + Tween-80) 6 of 10 on day 28; (T/C endpoint: median tumor weight change, dose: 125.0 mg/kg/injection, schedule: Q01DX001 (ip), vehicle: distilled water + Tween-80 + alcohol) 2 of 10 on day 39; (T/C endpoint: median tumor weight change, dose: 125.0 mg/kg/injection, schedule: Q01DX001 (ip), vehicle: distilled water + Tween-80) 4 of 10 on day 28, 4 of 10 on day 34, 4 of 10 on day 36; under setting [1], 0 of 10 on day 39; (T/C endpoint: median tumor weight change, dose: 250.0 mg/kg/injection, schedule: Q01DX001 (ip), vehicle: distilled water + Tween-80) 0 of 10 on day 28, 0 of 10 on day 34, 0 of 10 on day 36, 1 of 10 on day 36; under setting [2], 0 of 10 on day 39 and 6 of 10 on day 30. In addition, the survivor count (T/C endpoint: median tumor weight change, dose: 500.0 mg/kg/injection, schedule: Q01DX001 (ip), vehicle: distilled water + Tween-80) is 0 of 10 on day 36. Moreover, the T/C was 142 % of control (T/C endpoint: median tumor weight change, dose: 62.5 mg/kg/injection, schedule: Q01DX001 (ip), vehicle: distilled water + Tween-80, evaluated on day 36) and -17 % of control [7 of 10 alive on day 36] (T/C endpoint: median tumor weight change, dose: 125.0 mg/kg/injection, schedule: Q01DX001 (ip), vehicle: distilled water + Tween-80, evaluated on day 36).
In the case of `Cc1cc(NCCCCCCNc2cc(C)nc3cc(N(C)C)ccc23)c2ccc(N(C)C)cc2n1`, the survivor count is, setting by setting: under setting [1], 0 of 10 on day 31; under setting [2], 0 of 10 on day 31.
In the case of `CC1=CC2C(O)(CC(CO)=CC3C4C(C)(C)C4(OC(=O)c4ccccc4)C(OC(=O)c4ccccc4)C(C)C32O)C1=O` (stereo unspecified), the T/C (T/C endpoint: median tumor weight change, dose: 2.5 mg/kg/injection, schedule: Q01DX001 (ip), vehicle: saline with Tween-80, evaluated on day 35) was 132 % of control. Where the note is “T/C endpoint: median tumor weight change, dose: 10.0 mg/kg/injection, schedule: Q01DX001 (ip), vehicle: saline with Tween-80”, the survivor count is 0 of 10 on day 35.
In the case of `COCC(O)Cn1ccnc1[N+](=O)[O-]` (stereo unspecified), the T/C (T/C endpoint: median tumor weight (est.), dose: 32.0 mg/kg/injection, schedule: Q07DX005 (ip), vehicle: Klucel (hydroxypropylcellulose) (HPC), evaluated on day 30) was 143 % of control.
Consider `C[Si](C)(C)n1nnn(-c2ccccc2)c1=O`, for which the T/C is 127 % of control (T/C endpoint: mean tumor weight, dose: 12.5 mg/kg/injection, schedule: Q07DX006 (ip), vehicle: saline with Tween-80, evaluated on day 41); 138 % of control (T/C endpoint: mean tumor weight, dose: 100.0 mg/kg/injection, schedule: Q07DX006 (ip), vehicle: saline with Tween-80, evaluated on day 41); 140 % of control (T/C endpoint: mean tumor weight, dose: 200.0 mg/kg/injection, schedule: Q07DX006 (ip), vehicle: saline with Tween-80, evaluated on day 41); 134 % of control (T/C endpoint: median tumor weight (est.), dose: 100.0 mg/kg/injection, schedule: Q07DX005 (ip), vehicle: saline with Tween-80, evaluated on day 30).
As to `c1csc(C[N+]23CN4CN(CN(C4)C2)C3)c1`, the T/C is 148 % of control (T/C endpoint: median tumor weight change, dose: 62.5 mg/kg/injection, schedule: Q01DX001 (ip), vehicle: saline, evaluated on day 33) and 130 % of control (T/C endpoint: median tumor weight change, dose: 125.0 mg/kg/injection, schedule: Q01DX001 (ip), vehicle: saline, evaluated on day 33). The survivor count is given as 0 of 10 on day 33 (T/C endpoint: median tumor weight change, dose: 500.0 mg/kg/injection, schedule: Q01DX001 (ip), vehicle: saline) and 1 of 10 on day 33 (T/C endpoint: median tumor weight change, dose: 1000.0 mg/kg/injection, schedule: Q01DX001 (ip), vehicle: saline).
As for `CCCCCCCCCCCCCCCCCC(=O)Nc1ccn(C2OC(CO)C(O)C2O)c(=O)n1` (stereo unspecified), the survivor count reads like this: (T/C endpoint: median tumor weight (est.), dose: 180.0 mg/kg/injection, schedule: Q07DX005 (ip), vehicle: saline with Tween-80) 1 of 10 on day 30; (T/C endpoint: median tumor weight (est.), dose: 400.0 mg/kg/injection, schedule: Q07DX005 (ip), vehicle: suspension in saline) 1 of 10 on day 30.
With `O=C(O)C1CSCN1` (stereo unspecified), the survivor count (T/C endpoint: median tumor weight change, dose: 400.0 mg/kg/injection, schedule: Q01DX001 (ip), vehicle: water) was 0 of 10 on day 29.
In the case of `O=c1[nH]cc(F)c(=O)[nH]1`, the T/C runs as follows: (T/C endpoint: mean tumor weight, dose: 20.0 mg/kg/injection, schedule: Q01DX009 (ip), vehicle: saline, evaluated on day 51) 139 % of control; (T/C endpoint: median tumor weight change, dose: 89.0 mg/kg/injection, schedule: Q01DX001 (ip), vehicle: saline, evaluated on day 29) 13 % of control; (T/C endpoint: median tumor weight change, dose: 89.0 mg/kg/injection, schedule: Q01DX001 (ip), vehicle: saline, evaluated on day 30) 27 % of control; (T/C endpoint: median tumor weight change, dose: 89.0 mg/kg/injection, schedule: Q01DX001 (ip), vehicle: saline, evaluated on day 33) -38 and 12 % of control; (T/C endpoint: median tumor weight change, dose: 133.0 mg/kg/injection, schedule: Q01DX001 (ip), vehicle: saline, evaluated on day 29) 8 % of control; (T/C endpoint: median tumor weight change, dose: 133.0 mg/kg/injection, schedule: Q01DX001 (ip), vehicle: saline, evaluated on day 30) 17 % of control [9 of 10 alive on day 27]. For the same compound, the T/C runs as follows: (T/C endpoint: median tumor weight change, dose: 133.0 mg/kg/injection, schedule: Q01DX001 (ip), vehicle: saline, evaluated on day 32) 3 % of control; (T/C endpoint: median tumor weight change, dose: 133.0 mg/kg/injection, schedule: Q01DX001 (ip), vehicle: saline, evaluated on day 33) -39 % of control; (T/C endpoint: median tumor weight change, dose: 133.0 mg/kg/injection, schedule: Q01DX001 (ip), vehicle: saline, evaluated on day 34) 26 % of control; (T/C endpoint: median tumor weight change, dose: 200.0 mg/kg/injection, schedule: Q01DX001 (ip), vehicle: saline, evaluated on day 29) 6 % of control; (T/C endpoint: median tumor weight change, dose: 200.0 mg/kg/injection, schedule: Q01DX001 (ip), vehicle: saline, evaluated on day 30) -12 % of control [8 of 10 alive on day 27]; (T/C endpoint: median tumor weight change, dose: 200.0 mg/kg/injection, schedule: Q01DX001 (ip), vehicle: saline, evaluated on day 32) -7 % of control. Besides, the T/C reads like this: (T/C endpoint: median tumor weight change, dose: 200.0 mg/kg/injection, schedule: Q01DX001 (ip), vehicle: saline, evaluated on day 33) -80 and -62 % of control; (T/C endpoint: median tumor weight change, dose: 200.0 mg/kg/injection, schedule: Q01DX001 (ip), vehicle: saline, evaluated on day 34) -25 % of control [7 of 10 alive on day 34]; (T/C endpoint: median tumor weight change, dose: 270.0 mg/kg/injection, schedule: Q01DX001 (ip), vehicle: saline, evaluated on day 29) -21 % of control; (T/C endpoint: median tumor weight change, dose: 270.0 mg/kg/injection, schedule: Q01DX001 (ip), vehicle: saline, evaluated on day 32) -43 % of control [6 of 9 alive on day 32]; (T/C endpoint: median tumor weight change, dose: 270.0 mg/kg/injection, schedule: Q01DX001 (ip), vehicle: saline, evaluated on day 33) -77 % of control [8 of 10 alive on day 30]; (T/C endpoint: median tumor weight change, dose: 270.0 mg/kg/injection, schedule: Q01DX001 (ip), vehicle: saline, evaluated on day 34) 5 % of control [8 of 10 alive on day 34]. Besides, the survivor count was 5 of 10 (T/C endpoint: median tumor weight (est.), dose: 100.0 mg/kg/injection, schedule: Q07DX005 (ip), vehicle: saline); 6 of 10 on day 30 (T/C endpoint: median tumor weight change, dose: 133.0 mg/kg/injection, schedule: Q01DX001 (ip), vehicle: saline); 6 of 10 on day 28 (T/C endpoint: median tumor weight change, dose: 200.0 mg/kg/injection, schedule: Q01DX001 (ip), vehicle: saline); 2 of 10 on day 27 and 5 of 10 on day 30 (T/C endpoint: median tumor weight change, dose: 270.0 mg/kg/injection, schedule: Q01DX001 (ip), vehicle: saline); 2 of 10 on day 28 (T/C endpoint: median tumor weight change, dose: 400.0 mg/kg/injection, schedule: Q01DX001 (ip), vehicle: saline).
Consider `CC1=C(/C=C/C(C)=C/C=C/C(C)=C/C=O)C(C)(C)CCC1`, for which the survivor count is, setting by setting: (T/C endpoint: median tumor weight change, dose: 250.0 mg/kg/injection, schedule: Q01DX001 (ip), vehicle: saline with Tween-80) 2 of 10 on day 33; (T/C endpoint: median tumor weight change, dose: 500.0 mg/kg/injection, schedule: Q01DX001 (ip), vehicle: saline with Tween-80) 0 of 10 on day 33; under setting [3], 0 of 10 on day 33.
For the compound `CC1=CC(=NN=c2cc(C)n([O-])c(C)c2)C=C(C)[N+]1=O`, for the setting “T/C endpoint: median tumor weight change, dose: 250.0 mg/kg/injection, schedule: Q01DX001 (ip), vehicle: saline with Tween-80, evaluated on day 27”, the T/C is 132 % of control. The survivor count under setting [3] is 1 of 10 on day 27; the survivor count (T/C endpoint: median tumor weight change, dose: 1600.0 mg/kg/injection, schedule: Q01DX001 (ip), vehicle: suspension in saline) was 1 of 10 on day 42; the survivor count (T/C endpoint: median tumor weight change, dose: 2000.0 mg/kg/injection, schedule: Q01DX001 (ip), vehicle: saline with Tween-80) is reported as 1 of 10 on day 27; the survivor count (T/C endpoint: median tumor weight change, dose: 2000.0 mg/kg/injection, schedule: Q01DX001 (ip), vehicle: saline) is given as 0 of 10 on day 25.
